No constants are given. Whether binding was seen depends on the method and setting.
Columns and labels:
[1] = target: Spa47Δ1-83 (surface presentation antigens 47, residues 84-430) (Shigella flexneri) (UniProt P0A1C1); assay: crystal structure; unliganded Spa47Δ1-83 crystal, two monomers in the asymmetric unit; interfaces analysed with PDBePISA; both purified
[2] = target: Spa47Δ1-83 (surface presentation antigens 47, residues 84-430) (Shigella flexneri) (UniProt P0A1C1); assay: SEC; Superdex 75 10/300GL, 20 mM Tris-HCl pH 8.0, 100 mM NaCl, calibrated with molecular weight standards, flow 0.15 ml/min; both purified

Spa47Δ1-83 (surface presentation antigens 47, residues 84-430) (from UniProt P0A1C1 84-430) (domain or fragment)
binding [1]: no binding | binding [2]: no binding

From article PMC6036117, “Structural Insight Into Conformational Changes Induced by ATP Binding in a Type III Secretion-Associated ATPase From Shigella flexneri” (Frontiers in Microbiology, 2018)
